Data published in the supplement of paper PMC5949888.
± gives the standard deviation of the averaged measurements. Most values lie at the floor of the assay. Slopes are relative: functional sequences can read slightly below zero.

These substances were tested on Saccharomyces cerevisiae PS128 hsf1 delta, HSF1(1-493) fusion (assay: growth estimate (transactivation domain function in HSF1 fusion, heat-shock survival) (a.u. (slope of normalised read count over time)); higher = stronger growth at 37°C, i.e. more transactivation activity). Settings: library: random library.
Experimental: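 Random 60-nt DNA library encoding peptides of up to 20 aa, fused to the C-terminus of yeast HSF1 residues 1-493 (C-terminal TAD deleted) and expressed from the native HSF1 promoter on a CEN plasmid in hsf1-deleted S. cerevisiae PS128. Cells were selected at 37°C on -trp 5-FOA plates for 0, 2, 4, 6 and 8 days and amplicons were sequenced. Growth estimate is the slope of a robust linear fit of total-sum-normalised read counts (normalised to the first time point) over time, using at least 2 replicates. Sequences are classed functional (TAD activity) above a threshold of -0.13, set from stop-codon control sequences.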

Substance	growth estimate
LTISHPGCRTTVSACRMGLS	< -0.25
CGRSR	< -0.25
VTKLVRSTSGANRETRDRAR	< -0.25
FNGVRGGRGILALQHLGRHN	< -0.25
QDW	< -0.25
KVQ	< -0.25
DRLISLIKLIRMD	< -0.25
GLHSAGSGFFFMAPLKLKRV	< -0.25
CFTGVKGSPWLLAVPIAVGP	-0.241
VYETIPRPQVAIIVFSGCVE	< -0.25
AKDVRIGLRVHCIKGAIQGK	< -0.25
YDKQLRGALKKQQVLPEAKS	-0.246
FPL	< -0.25
EGRFKGCKGKWLFRSR	< -0.25
GLRAGTILGNLYRL	< -0.25
PRTGHCQLGLSVWARTIGRR	< -0.25
AEEGHTRNMIITSEFPRLPP	< -0.25
LAVLFNRSTIAWASECEITI	< -0.25
RWLEVLS	< -0.25
GTSTGSWKGASGALSSLSLW	< -0.25
AGYRPMFHMS	< -0.25
KPDPTGRSPRRAYRAGPV	< -0.25
TQRRMWYWMDEICRSDAARS	< -0.25
HQVPPTKESVSYCVVRRRTP	< -0.25

Substance	growth estimate
RISKGWRSHHLRGRVRLMGC	< -0.25
LAGRD	< -0.25
KELRGVATRSEGKSALTWHL	< -0.25
TFVLEPVKCRGT	< -0.25
GESRPAIPLGVNQWFEPNTI	< -0.25
QQG	< -0.25
MVAANGVSGSSSADRGILCN	< -0.25
HYWYQHKG	< -0.25
PVRTTKDLAKSAKQLFVIRE	< -0.25
LCVIWQWPFQYSRSLVLLLS	< -0.25
LLDYCLSGASRSFHK	< -0.25
SSSDLR	< -0.25
NGPKNMISLKQ	< -0.25
RVGSSKATEASRNGTSC	< -0.25
RTADPPLRRWPRGLGTLSPG	< -0.25
YNATHGFTVVLYPKWLLPQP	< -0.25
LAPALGRDARRNGGGL	< -0.25
LVS	-0.221 ± 0.046
LYTKEVVHNYVRYLVLGSLP	< -0.25
GVSDVGSNTEPPWGAIVSWP	< -0.25
IGTV	< -0.25
SLM	< -0.25
RTGGCWCRRSRLAGRAVDAV	< -0.25
ISMV	< -0.25

Substance	growth estimate
TDTPPIARFSLGRYQYSLLP	< -0.25
ALKDGHLLRSTPMGVSALLC	< -0.25
LTRIVSLIGKDPELKQL	-0.205
GYFPDLGMNGDPHQGW	-0.236
DQPAGSANQVVVVPVSSG	< -0.25
SVGGVRKTANKSALNRTLTR	< -0.25
RFYRYRPERRQRLAGTIVYT	< -0.25
NYTLKL	< -0.25
GAFECLRNTVVLFVFFGPFR	< -0.25
FGARGVGVNVTLGIRLLLRR	< -0.25
IHRENTPSAIVIGGSGPETA	< -0.25
GKH	-0.217
RQPAVAPGKRPTSQHRVPPG	< -0.25
LYSSPSRGSLESDQRYGIK	< -0.25
RAYHTLLCPRPRARQVV	< -0.25
HAYTQGYPRVIGRAFVNKSQ	< -0.25
VYGPERTNHDRIKVDKGNSY	< -0.25
AAVYN	-0.243
LACDRSSDRLPVEPRSSVRG	< -0.25
HVVSCVLLIPVKSFPPLGHL	< -0.25
KKRRIGGHSYCPTGLVRA	-0.241
RKLRHIEVSHPFSMVVHLHH	< -0.25
VPRSRA	< -0.25
GGHLRAISQVGPD	< -0.25

A few values from the list:
Entry for RVGSSKATEASRNGTSC under growth estimate: < -0.25
Entry for VYGPERTNHDRIKVDKGNSY under growth estimate: < -0.25
Entry for RTGGCWCRRSRLAGRAVDAV under growth estimate: < -0.25
Entry for YNATHGFTVVLYPKWLLPQP under growth estimate: < -0.25
Entry for RKLRHIEVSHPFSMVVHLHH under growth estimate: < -0.25
Entry for RISKGWRSHHLRGRVRLMGC under growth estimate: < -0.25

Continued:

Substance	growth estimate
MCVDLPGTEHLLRKQCQ	< -0.25
WTEDLNALHIGSGG	< -0.25
NGFLVGRYVL	< -0.25
IYVPGRVEGPVALCGR	< -0.25
RLEFRLREMDAIVHSFGIEL	< -0.25
FCGSSAVTRFQPTPGWKDRE	< -0.25
VTTDFV	< -0.25
LLPIVRVHIGDIGDTAGGRV	< -0.25
PSGVA	< -0.25
ARSGCYEETPG	< -0.25
SPPRP	< -0.25
GTPDMGRMCVWIHHLAECYR	< -0.25
GNQ	< -0.25
PQPRGYLRFGGPISNVRVLC	< -0.25
IEQLHTRCRGVREPSCVRIS	< -0.25
AMNTR	< -0.25
SQSRRGVDILTFALYKKVTP	< -0.25
GSEIMPASSNGPWLMGVSS	< -0.25
AIGK	< -0.25
NKN	< -0.25
WQTGLEGTCNRVSLTHVSIR	< -0.25
VTLELMLCEFRAIIYRWRNV	< -0.25
KTIRGTRC	< -0.25
RSTRTDKLARASFRILLTLW	< -0.25

Substance	growth estimate
HRQEGCDACRTSPPTVCSLG	< -0.25
CQCLRWCPGLSPKKFLSLPR	< -0.25
GTNDGP	-0.245
VGRGSAQRARPGLITKKLTA	< -0.25
FAFQGVD	< -0.25
NQRVECQI	< -0.25
PGASSFSDAGRC	< -0.25
PSSCIVPGRNFIKAEFRNAV	< -0.25
TSYYI	-0.0463
SRRCKIVRYPNLPSDRPKPA	< -0.25
GGMVRYTWASM	< -0.25
ITHP	< -0.25
FRGEDLMRSIVEF	< -0.25
RMTSGSNECNTDFNPSSASP	< -0.25
IRRQED	< -0.25
WSRGRTSWN	< -0.25
VGYCQVGGH	< -0.25
ETRGYFSLEMRLAAKNNRTF	< -0.25
PKHLPALTYIDIFRLGVQRT	< -0.25
RVI	-0.247 ± 0.0037
AHFHSS	-0.133
LLPVISACTDRLVAITGRAV	< -0.25
DPTYPNNVGRSRAVQAVIFL	< -0.25
AIKM	< -0.25

Substance	growth estimate
RVATRLVRPDHTF	< -0.25
ELRPLDQTASLRGLRE	< -0.25
SQV	< -0.25
PNLLTPLCANRGG	< -0.25
LVSYQRGTASIFLNGISLDP	< -0.25
CSIFLLCSYCATWTYMVRAK	< -0.25
QDEQWCTNALVSPALWRSTQ	< -0.25
ETRRFRVITARGINYARALM	-0.246
LRLTGAPVDSIIVRELGEQN	< -0.25
KKPSCRTRTEGKSVRHGSPW	< -0.25
HQLGKPSLESTLECSAVNCR	< -0.25
IDTRRVRGQRKDGSRQTGQT	< -0.25
KRYGVPVICNA	< -0.25
HACSLEALERVGRHCRNPCY	< -0.25
SWLLRQGVNRSGGHDVSRPT	-0.245
KSGDDYLGGRWRATSHTRAP	-0.229
INGPKWILVYSGPAGVGL	< -0.25
AWDAGAVGRNLTLHVVRLKS	< -0.25
SEGFVTSCAVSIKVRDSATT	< -0.25
RYSDFARPKG	< -0.25
LREIRTRFGIDETCWGRREL	< -0.25
AVCPNRL	< -0.25
EVISWEQRLWEPTFAQGNAF	-0.231
ASRLVNQSKNLVILCVMSTP	< -0.25
